Results are given in words; binding and its absence hold for the method and conditions named. Binding seen in cells or lysates may run through a third protein. These calls come from enrichment with a bait or labelling near it, and not all partners need be listed. No binding means not detected with the bait. Where a sequence is shown, tags or fusion partners need not be part of it.

Amino acid sequences for entries named in this document (tags omitted).
UniProt A0A0H3JV59: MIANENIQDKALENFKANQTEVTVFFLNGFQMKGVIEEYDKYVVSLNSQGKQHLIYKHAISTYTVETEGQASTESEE

The labels stand for the following.
T1: 3×FLAG-tagged S. aureus RNase R (S. aureus) (UniProt Q2G024)
T1 sequence (chain, methylated Q538 (found by LC-MS/MS of the immunoprecipitated protein)): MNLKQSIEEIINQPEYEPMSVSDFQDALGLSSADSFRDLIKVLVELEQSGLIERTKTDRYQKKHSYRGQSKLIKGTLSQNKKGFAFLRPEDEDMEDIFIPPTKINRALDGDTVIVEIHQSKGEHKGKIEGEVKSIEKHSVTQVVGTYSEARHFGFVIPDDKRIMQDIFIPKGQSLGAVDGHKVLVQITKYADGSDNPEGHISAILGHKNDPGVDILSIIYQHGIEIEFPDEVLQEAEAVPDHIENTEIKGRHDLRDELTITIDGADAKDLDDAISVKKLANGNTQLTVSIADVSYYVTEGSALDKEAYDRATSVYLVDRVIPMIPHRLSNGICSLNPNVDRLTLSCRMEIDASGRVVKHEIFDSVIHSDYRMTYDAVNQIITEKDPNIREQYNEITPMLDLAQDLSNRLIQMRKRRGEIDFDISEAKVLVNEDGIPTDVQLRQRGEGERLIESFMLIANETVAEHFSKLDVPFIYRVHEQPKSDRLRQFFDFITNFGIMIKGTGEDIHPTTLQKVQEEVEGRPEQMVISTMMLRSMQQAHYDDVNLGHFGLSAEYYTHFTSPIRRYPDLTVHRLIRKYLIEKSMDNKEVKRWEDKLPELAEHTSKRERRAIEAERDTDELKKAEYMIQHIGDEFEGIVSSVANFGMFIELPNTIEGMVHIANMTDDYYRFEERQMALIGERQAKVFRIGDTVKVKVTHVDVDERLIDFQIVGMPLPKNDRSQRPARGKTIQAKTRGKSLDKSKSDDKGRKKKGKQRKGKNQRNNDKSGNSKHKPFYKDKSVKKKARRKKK

B1: S. aureus hibernation-promoting factor (protein, UniProt Q2YSH7 1-190)
chain: MIRFEIHGDNLTITDAIRNYIEEKIGKLERYFNDVPNAVAHVKVKTYSNSATKIEVTIPLKNVTLRAEERNDDLYAGIDLINNKLERQVRKYKTRINRKSRDRGDQEVFVAELQEMQETQVDNDAYDDNEIEIIRSKEFSLKPMDSEEAVLQMNLLGHDFFVFTDRETDGTSIVYRRKDGKYGLIQTSEQ

The target in one test is T1, 3×FLAG-tagged S. aureus RNase R (S. aureus). Nature of the test: affinity purification with mass spectrometry; 3×FLAG-Rnr from S. aureus lysate held on anti-FLAG M2 magnetic beads; buffer C (50 mM Tris-Cl pH 7.5, 100 mM KCl, 1 mM PMSF, 10 mM MgCl2); 1 h at ~22°C and 15 h at 4°C; eluted with glycine pH 2.6; LC-MS/MS; untagged control in parallel.
In the case of B1, the binding entry is reported as “no binding”.

A further test has the same target. Described as above. The source holds these as a separate data set.
In the case of 30S ribosomal protein uS12, the binding entry is listed as “binds”.

“S. aureus Hfq (from UniProt A0A0H3JV59 1-77)”: the binding result was “no binding”.

For the molecule S. aureus PNPase (enzyme), the binding result is listed as “no binding”.

In the case of “S. aureus SmpB (protein of the tmRNA-SmpB complex)”, the binding result is given as “no binding”.

Turning to S. aureus YbeY (enzyme), the binding result is recorded as “no binding”.
